Assay [1] addresses GST-LANA C (945–1162aa) (Kaposi's sarcoma-associated herpesvirus (KSHV, human herpesvirus 8)). Put plainly: pull-down; GST-LANA fusion proteins on beads incubated with 35S-labeled in vitro-translated IRF-4 (full length or FLAG-tagged truncations); binding buffer 1x PBS, 0.1% NP-40, 0.5 mM DTT, 10% glycerol, protease inhibitors; overnight at 4°C; autoradiography; only the target purified.

The target is the same in assay [2]. Put plainly: pull-down; as a2, in the presence of DNase I (20 U/ml) treatment; only the target purified.

Results are given in words; binding and its absence hold for the method and conditions named. Binding seen in cells or lysates may run through a third protein. Binding calls can cover weak binding; strength is not graded here. For part of these data: Sequences can lack the tags named with a protein.

B1: IRF-4 1–135 with FLAG tag, in vitro-translated (domain or fragment, UniProt Q15306 1-135)
chain: MNLEGGGRGGEFGMSAVSCGNGKLRQWLIDQIDSGKYPGLVWENEEKSIFRIPWKHAGKQDYNREEDAALFKAWALFKGKFREGIDKPDPPTWKTRLRCALNKSNDFEELVERSQLDISDPYKVYRIVPEGAKKG
modifications: 35S-radiolabeled
Take B1: in assay [1], the binding result was “binds”.

B2: in vitro-translated full length IRF-4 (protein, UniProt Q15306 1-451)
chain: MNLEGGGRGGEFGMSAVSCGNGKLRQWLIDQIDSGKYPGLVWENEEKSIFRIPWKHAGKQDYNREEDAALFKAWALFKGKFREGIDKPDPPTWKTRLRCALNKSNDFEELVERSQLDISDPYKVYRIVPEGAKKGAKQLTLEDPQMSMSHPYTMTTPYPSLPAQQVHNYMMPPLDRSWRDYVPDQPHPEIPYQCPMTFGPRGHHWQGPACENGCQVTGTFYACAPPESQAPGVPTEPSIRSAEALAFSDCRLHICLYYREILVKELTTSSPEGCRISHGHTYDASNLDQVLFPYPEDNGQRKNIEKLLSHLERGVVLWMAPDGLYAKRLCQSRIYWDGPLALCNDRPNKLERDQTCKLFDTQQFLSELQAFAHHGRSLPRFQVTLCFGEEFPDPQRQRKLITAHVEPLLARQLYYFAQQNSGHFLRGYDLPEHISNPEDYHRSIRHSSIQE
modifications: 35S-radiolabeled
As to B2, the binding entry in assay [1] and in assay [2] was “binds” in each case.

Source of the values: paper PMC3814934.
